In article PMC6353870 one finds binding data, which are given here for one molecule.

Results are given in words; binding and its absence hold for the method and conditions named. In cells and extracts the contact can be indirect. Binding can be weak; no strength is given. Sequences can lack the tags named with a protein.

In assay [1] the target is 3xflag-EWS-FLI1 K298R. As to the kind of experiment: co-IP; myc-USP19 co-expressed with 3xflag-EWS-FLI1 wild-type or mutants (K298R or K380R); cell line not stated (Fig. S2d).
Assay [2] deals with 3xflag-EWS-FLI1 K380R. Described as above.

B1: 3xmyc-USP19 (ubiquitin specific protease 19) (enzyme, UniProt O94966 1-1318)
chain: MSGGASATGPRRGPPGLEDTTSKKKQKDRANQESKDGDPRKETGSRYVAQAGLEPLASGDPSASASHAAGITGSRHRTRLFFPSSSGSASTPQEEQTKEGACEDPHDLLATPTPELLLDWRQSAEEVIVKLRVGVGPLQLEDVDAAFTDTDCVVRFAGGQQWGGVFYAEIKSSCAKVQTRKGSLLHLTLPKKVPMLTWPSLLVEADEQLCIPPLNSQTCLLGSEENLAPLAGEKAVPPGNDPVSPAMVRSRNPGKDDCAKEEMAVAADAATLVDEPESMVNLAFVKNDSYEKGPDSVVVHVYVKEICRDTSRVLFREQDFTLIFQTRDGNFLRLHPGCGPHTTFRWQVKLRNLIEPEQCTFCFTASRIDICLRKRQSQRWGGLEAPAARVGGAKVAVPTGPTPLDSTPPGGAPHPLTGQEEARAVEKDKSKARSEDTGLDSVATRTPMEHVTPKPETHLASPKPTCMVPPMPHSPVSGDSVEEEEEEEKKVCLPGFTGLVNLGNTCFMNSVIQSLSNTRELRDFFHDRSFEAEINYNNPLGTGGRLAIGFAVLLRALWKGTHHAFQPSKLKAIVASKASQFTGYAQHDAQEFMAFLLDGLHEDLNRIQNKPYTETVDSDGRPDEVVAEEAWQRHKMRNDSFIVDLFQGQYKSKLVCPVCAKVSITFDPFLYLPVPLPQKQKVLPVFYFAREPHSKPIKFLVSVSKENSTASEVLDSLSQSVHVKPENLRLAEVIKNRFHRVFLPSHSLDTVSPSDTLLCFELLSSELAKERVVVLEVQQRPQVPSVPISKCAACQRKQQSEDEKLKRCTRCYRVGYCNQLCQKTHWPDHKGLCRPENIGYPFLVSVPASRLTYARLAQLLEGYARYSVSVFQPPFQPGRMALESQSPGCTTLLSTGSLEAGDSERDPIQPPELQLVTPMAEGDTGLPRVWAAPDRGPVPSTSGISSEMLASGPIEVGSLPAGERVSRPEAAVPGYQHPSEAMNAHTPQFFIYKIDSSNREQRLEDKGDTPLELGDDCSLALVWRNNERLQEFVLVASKELECAEDPGSAGEAARAGHFTLDQCLNLFTRPEVLAPEEAWYCPQCKQHREASKQLLLWRLPNVLIVQLKRFSFRSFIWRDKINDLVEFPVRNLDLSKFCIGQKEEQLPSYDLYAVINHYGGMIGGHYTACARLPNDRSSQRSDVGWRLFDDSTVTTVDESQVVTRYAYVLFYRRRNSPVERPPRAGHSEHHPDLGPAAEAAASQASRIWQELEAEEEPVPEGSGPLGPWGPQDWVGPLPRGPTTPDEGCLRYFVLGTVAALVALVLNVFYPLVSQSRWR
On to B1, for which the binding entry in assay [1] and in assay [2] was “binds” in each case.
